57 sequences from article PMC7862700 can be followed below.

Sequences of proteins named here, by UniProt entry; tags and fusion partners are left off. A change or cut given only in a name is not applied to a line headed by its entry.
UniProt Q00613: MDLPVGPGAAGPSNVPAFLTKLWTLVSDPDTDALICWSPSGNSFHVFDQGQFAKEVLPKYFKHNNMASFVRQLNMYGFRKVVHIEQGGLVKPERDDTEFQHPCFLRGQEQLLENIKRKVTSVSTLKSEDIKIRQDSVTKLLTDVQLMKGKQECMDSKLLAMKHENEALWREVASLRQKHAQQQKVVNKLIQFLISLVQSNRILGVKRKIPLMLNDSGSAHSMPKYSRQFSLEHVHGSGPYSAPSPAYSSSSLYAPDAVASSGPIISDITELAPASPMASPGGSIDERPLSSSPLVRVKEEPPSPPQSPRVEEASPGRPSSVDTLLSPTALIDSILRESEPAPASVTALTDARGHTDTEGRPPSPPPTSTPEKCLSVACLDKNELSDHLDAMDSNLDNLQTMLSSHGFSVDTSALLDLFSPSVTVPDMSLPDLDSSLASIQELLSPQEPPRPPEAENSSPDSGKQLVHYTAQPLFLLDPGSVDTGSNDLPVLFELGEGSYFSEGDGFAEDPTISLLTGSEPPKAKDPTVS

The target of assay [1] is HSF1 (UniProt Q00613). Briefly: DAPPL (digital affinity profiling via proximity ligation, sequencing). The note with it: 10 mM Tris-HCl pH 7.5, 50 mM NaCl, 1 mM DTT, 4% glycerol, room temperature, 30 min; GST-TFs on glutathione beads, 16-mer random dsDNA library, 0.1% …; high values mean tight binding; double strand, one strand shown; scale: fold enrichment (6-mer frequency, TF over GST control).

For assay [2], the target named is T1, ELF2 (UniProt Q15723).
T1 sequence: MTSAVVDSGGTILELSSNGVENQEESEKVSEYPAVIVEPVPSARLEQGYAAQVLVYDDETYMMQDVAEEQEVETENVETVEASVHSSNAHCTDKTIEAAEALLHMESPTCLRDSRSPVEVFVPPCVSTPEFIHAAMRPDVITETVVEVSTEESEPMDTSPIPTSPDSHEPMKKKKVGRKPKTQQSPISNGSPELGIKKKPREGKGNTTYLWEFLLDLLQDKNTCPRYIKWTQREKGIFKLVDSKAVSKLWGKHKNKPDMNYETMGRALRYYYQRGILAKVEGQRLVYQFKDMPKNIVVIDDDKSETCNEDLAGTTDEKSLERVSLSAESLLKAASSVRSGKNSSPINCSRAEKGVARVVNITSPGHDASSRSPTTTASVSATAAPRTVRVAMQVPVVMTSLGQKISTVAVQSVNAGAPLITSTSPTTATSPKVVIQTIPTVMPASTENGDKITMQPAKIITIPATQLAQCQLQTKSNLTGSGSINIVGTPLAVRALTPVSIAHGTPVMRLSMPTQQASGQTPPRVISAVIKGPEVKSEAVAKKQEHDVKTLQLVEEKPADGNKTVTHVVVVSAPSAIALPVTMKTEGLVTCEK
The description is as above. To be noted: 10 mM Tris-HCl pH 7.5, 50 mM NaCl, 1 mM DTT, 4% glycerol, room temperature, 30 min; GST-TFs on glutathione beads, 16-mer random dsDNA library, 0.1% …; high values mean tight binding; double strand, one strand shown; scale: fold enrichment (6-mer frequency, TF over GST control).

The entries are a selection whose mix differs from that of the whole data set. For part of these data: At the low end of the ranking the order means little. The list shows a part of the results. For part of these data: The exact form of the protein is not confirmed.

GGGACG: the binding signal is 0.377 in assay [1] and 0.471 in assay [2].
For CGAGCC the same measures were 0.811 and 0.784.
As for TGAGCA, the results for the binding signal in assay [1] and in assay [2] were 0.714 and 0.85, respectively.
The matching figures for GGGTGG: 0.651 and 0.727.
As to GGATAG, the binding signal in assay [1] amounted to 0.702; in assay [2], 0.731.
For CGGTGA the same measures were 0.385 and 0.442.
CCGTGG: the values for the binding signal in assay [1] and in assay [2] were 0.381 and 0.406, respectively.
The matching figures for GACCCG: 0.619 and 0.967.
CGGCGG: the binding signal in assay [1] is 0.431; in assay [2], 0.564.
As for CGGGGG, the binding signal is 0.385 in assay [1] and 0.431 in assay [2].
For GACACG the same measures were 0.538 and 0.693.
For GAGGTT the same measures were 0.751 and 0.758.
For GACACC the same measures were 0.638 and 0.884.
With CCGAGT, the binding signal worked out at 0.89 in assay [1] and 0.902 in assay [2].
For GGGAGC the same measures were 0.353 and 0.369.
The matching figures for CGGTAA: 0.873 and 0.986.
Take CGGTCA: the binding signal in assay [1] came out at 0.607; in assay [2], 0.773.
For GAACCG the same measures were 0.562 and 0.831.
As to GGGTAA, the binding signal in assay [1] is 0.784; in assay [2] it was 0.836.
For CAGTTA, the figures for the binding signal in assay [1] and in assay [2] were 0.684 and 0.699, respectively.
As to GGGGAC, the binding signal worked out at 0.372 in assay [1] and 0.434 in assay [2].
As for GACGCG, the binding signal in assay [1] was 0.529; in assay [2], 0.64.
The matching figures for GGCCGT: 0.346 and 0.378.
In the case of CCGGAG, the binding signal in assay [1] came out at 0.427; in assay [2], 0.535.
On to GCACAG, for which the binding signal in assay [1] came out at 0.593; in assay [2], 0.679.
The matching figures for GGCACA: 0.62 and 0.786.
For AAGCCA the same measures were 0.935 and 0.853.
The matching figures for TCGGTC: 0.484 and 0.531.
On to GCTGAG, for which the results for the binding signal in assay [1] and in assay [2] were 0.627 and 0.648, respectively.
The matching figures for GGCAAC: 0.691 and 0.897.
The matching figures for CGTGCA: 0.553 and 0.659.
Regarding CAGCTG, the binding signal in assay [1] amounted to 0.746; in assay [2] it was 0.79.
For the sequence GGTCGC, the binding signal was found to be 0.606 in assay [1] and 0.792 in assay [2].
Take AGAGGT: the figures for the binding signal in assay [1] and in assay [2] were 0.745 and 0.794, respectively.
For ACGCAA the same measures were 0.802 and 0.859.
For CCGAGA the same measures were 0.952 and 0.582.
As to AGTGTG, the binding signal in assay [1] amounted to 0.544; in assay [2], 0.683.
The matching figures for ACTAGT: 0.965 and 0.865.
For GGCGGA the same measures were 0.227 and 0.46.
For GCTCGG the same measures were 0.668 and 0.706.
Regarding CATGTC, the binding signal is 0.55 in assay [1] and 0.791 in assay [2].
The matching figures for GTGGGA: 0.507 and 0.571.
The matching figures for CCGTAG: 0.809 and 0.859.
For CCAGGT the same measures were 0.669 and 0.712.
GCGGTC: the values for the binding signal in assay [1] and in assay [2] were 0.521 and 0.633, respectively.
In the case of GGCGCG, the binding signal came to 0.536 in assay [1] and 0.649 in assay [2].
As for TGAGGC, the binding signal is 0.426 in assay [1] and 0.452 in assay [2].
Consider CGGAGA, for which the binding signal in assay [1] is 0.22; in assay [2], 0.212.
Turning to CCAGGC, the binding signal in assay [1] came out at 0.413; in assay [2] it was 0.414.
Consider TAGACG, for which the binding signal was 0.91 in assay [1] and 0.73 in assay [2].
As to ACCGGG, the binding signal in assay [1] is 0.39; in assay [2], 0.526.
For CCGTGA, the binding signal in assay [1] was found to be 0.187; in assay [2] it was 0.193.
The matching figures for GCAGTT: 0.656 and 0.858.
On to ATCGAG, for which the binding signal is 1.49 in assay [1] and 0.828 in assay [2].
As to TGTAGG, the binding signal in assay [1] was determined as 0.682; in assay [2] it was 0.792.
Regarding GGTCCG, the values for the binding signal in assay [1] and in assay [2] were 0.584 and 0.764, respectively.
For GGGGCC the same measures were 0.467 and 0.517.
